Numbering of substitutions follows the chain as printed. Results are given in words; binding and its absence hold for the method and conditions named. In cells and extracts the contact can be indirect. Some results given as binding are weak or reduced against the parent protein; the word gives no strength. Tags and fused reporters may be left off the sequences shown.
Tests used:
[1] = biological target: T1, HA-tagged WT Clec12a (mouse) (mouse) (UniProt Q504P2); test: co-IP; DC2.4 cell lysate (50 mM Hepes pH 7.4, 150 mM NaCl, 1% NP-40, 1 mM EDTA); anti-HA antibody on protein A/G agarose, 3 h at 4°C; washed four times with lysis buffer with 300 mM NaCl added; Western blot for SHP-1/2
T1 sequence: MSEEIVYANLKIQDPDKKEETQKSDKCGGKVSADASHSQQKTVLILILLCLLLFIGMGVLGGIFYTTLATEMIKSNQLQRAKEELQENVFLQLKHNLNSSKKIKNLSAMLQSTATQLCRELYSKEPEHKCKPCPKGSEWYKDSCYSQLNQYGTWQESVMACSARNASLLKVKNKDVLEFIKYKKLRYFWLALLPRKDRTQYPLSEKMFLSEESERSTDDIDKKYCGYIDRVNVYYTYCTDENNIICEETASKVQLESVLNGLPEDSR

Sequences of proteins named here, by UniProt entry; tags and fusion partners are left off.
UniProt P29351: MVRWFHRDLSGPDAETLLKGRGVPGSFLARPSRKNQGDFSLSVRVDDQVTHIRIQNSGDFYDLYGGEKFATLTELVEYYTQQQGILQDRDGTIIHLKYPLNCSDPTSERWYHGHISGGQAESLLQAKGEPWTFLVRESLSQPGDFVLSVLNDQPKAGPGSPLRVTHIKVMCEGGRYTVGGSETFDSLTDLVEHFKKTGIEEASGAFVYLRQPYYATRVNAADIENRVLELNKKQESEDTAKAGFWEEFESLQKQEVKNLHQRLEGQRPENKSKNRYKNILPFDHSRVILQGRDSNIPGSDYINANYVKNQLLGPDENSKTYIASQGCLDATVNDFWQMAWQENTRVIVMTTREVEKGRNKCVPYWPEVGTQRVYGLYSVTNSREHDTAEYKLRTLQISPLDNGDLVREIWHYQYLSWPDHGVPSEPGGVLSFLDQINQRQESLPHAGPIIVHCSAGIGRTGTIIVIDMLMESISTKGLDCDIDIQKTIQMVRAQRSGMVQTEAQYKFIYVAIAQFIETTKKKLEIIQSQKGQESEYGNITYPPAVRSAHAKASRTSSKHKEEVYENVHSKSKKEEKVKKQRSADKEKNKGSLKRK

[2] = biological target: T2, HA-tagged ITIM mutant Clec12a (Y7F) (mouse) (mouse) (UniProt Q504P2); test: as above
T2 sequence: T1 sequence with Y7F

**Q.** How did the binding [1] turn out when “SH2 domain-containing phosphatase 1 (SHP-1), mouse (from UniProt P29351 1-595) (enzyme)” was run?
**A.** binds

**Q.** And the binding [2]?
**A.** no binding
